Reference: the supplement of paper PMC12593923

Legend:
Assay in all cases: drug sensitivity score (DSS2, cytotoxicity, CellTox Green); higher = more cytotoxic / more sensitive; extreme values may be limits of the assay
Conditions in all cases: 72 h; doses 0.5, 1, 5 µM
[1] = system: Kuramochi
[2] = system: OVCAR4
[3] = system: OVCAR3

| Compound | drug sensitivity score [1] [DSS] | drug sensitivity score [2] [DSS] | drug sensitivity score [3] [DSS] |
| --- | --- | --- | --- |
| NCCCNCCSP(=O)(O)O [Amifostine] | 0 | 0 | 0 |
| O=C1CCc2cc(OCCCCc3nnnn3C3CCCCC3)ccc2N1 [Cilostazol] | 0 | 0 | 0 |
| COC(=O)C1=C(C)NC(C)=C(C(=O)OCCN(C)Cc2ccccc2)C1c1cccc([N+](=O)[O-])c1 (centres undefined) [Nicardipine (hydrochloride)] | 0 | 0 | 0 |
| C[C@@H]1O[C@@H](O[C@H]2C[C@@H](O)[C@]3(CO)[C@H]4[C@H](O)C[C@]5(C)[C@@H](C6=CC(=O)OC6)CC[C@]5(O)[C@@H]4CC[C@]3(O)C2)[C@H](O)[C@H](O)[C@H]1O [Ouabain (Octahydrate)] | 4.3 | 6.1 | 4.5 |
| N[C@@H](CCC(=O)O)C(=O)[O-].[Na+] [L-Glutamic acid (monosodium salt)] | 0 | 0 | 0 |
| CCOc1cc([C@@H](CS(C)(=O)=O)N2C(=O)c3cccc(NC(C)=O)c3C2=O)ccc1OC [Apremilast] | 0.1 | 0 | 0.2 |
| C[C@]12C=CC(=O)C=C1CC[C@@H]1[C@@H]2C(=O)C[C@@]2(C)[C@H]1CC[C@]2(O)C(=O)CO [Prednisone] | 0 | 0.4 | 0 |
| CN(C)C(=O)c1cc2cnc(Nc3ccc(N4CCNCC4)cn3)nc2n1C1CCCC1 [Ribociclib succinate hydrate] | 0 | 0 | 0 |
| CC(C)C[C@H](NC(=O)[C@@H](COC(C)(C)C)NC(=O)[C@H](Cc1ccc(O)cc1)NC(=O)[C@H](CO)NC(=O)[C@H](Cc1c[nH]c2ccccc12)NC(=O)[C@H](Cc1cnc[nH]1)NC(=O)[C@@H]1CCC(=O)N1)C(=O)N[C@@H](CCCNC(=N)N)C(=O)N1CCC[C@H]1C(=O)NNC(N)=O [Goserelin (acetate)] | 0 | 0 | 0 |
| CNC(=O)c1cc(Oc2ccc(NC(=O)Nc3ccc(Cl)c(C(F)(F)F)c3)c(F)c2)ccn1 [Regorafenib] | 0 | 1.7 | 0 |
| NCC(=O)CCC(=O)O [5-Aminolevulinic acid (hydrochloride)] | 0 | 0 | 2.5 |
| O=C(O)c1ccccc1O [Salicylic acid] | 0 | 0 | 0 |
| COC(=O)C[C@](O)(CCCC(C)(C)O)C(=O)O[C@@H]1C(OC)=C[C@]23CCCN2CCc2cc4c(cc2[C@H]13)OCO4 [Homoharringtonine] | 0 | 0 | 0 |
| C[C@H](CCC(=O)O)[C@H]1CC[C@H]2[C@@H]3[C@H](O)C[C@@H]4C[C@H](O)CC[C@]4(C)[C@H]3CC[C@]12C [Chenodeoxycholic Acid] | 0 | 0 | 0 |
| COCC1(CO)C(=O)C2CCN1CC2 (centres undefined) [Eprenetapopt] | 0 | 0 | 0 |
| C=C(c1ccc(C(=O)O)cc1)c1cc2c(cc1C)C(C)(C)CCC2(C)C [Bexarotene] | 0 | 0 | 0 |
| CCOc1cc(C(C)(C)C)ccc1C1=N[C@@](C)(c2ccc(Cl)cc2)[C@@](C)(c2ccc(Cl)cc2)N1C(=O)N1CCN(CCCS(C)(=O)=O)CC1 [RG7112] | 0 | 0 | 0 |
| S=C(N/N=C1/CCCc2cccnc21)N1CCN(c2ccccn2)CC1 [COTI-2] | 0 | 0 | 0 |
| CCOC(=O)[C@H](Cc1ccc(F)cc1)NC(=O)[C@@H](N)Cc1ccc(N(CCCl)CCCl)cc1 [Melflufen (hydrochloride)] | 0.5 | 1.4 | 1.7 |
| CC(C)(CO)[C@@H](O)C(=O)NCCC(=O)O [D-Pantothenic acid (sodium)] | 0 | 0 | 0 |
| Nc1nc2[nH]cc(CCc3ccc(C(=O)N[C@@H](CCC(=O)O)C(=O)O)cc3)c2c(=O)[nH]1 [Pemetrexed] | 0 | 0 | 0 |
| CC(=O)Nc1nnc(S(N)(=O)=O)s1 [Acetazolamide] | 0 | 0 | 0 |
| CN1CC(=O)N2[C@H](c3ccc4c(c3)OCO4)c3[nH]c4ccccc4c3C[C@@H]2C1=O [Tadalafil] | 0 | 0 | 0 |
| CC(C(=O)O)c1ccc2c(c1)[nH]c1ccc(Cl)cc12 (centres undefined) [Carprofen] | 0.6 | 0 | 0.5 |

| Compound | drug sensitivity score [1] [DSS] | drug sensitivity score [2] [DSS] | drug sensitivity score [3] [DSS] |
| --- | --- | --- | --- |
| COc1cc(NS(C)(=O)=O)ccc1Nc1c2ccccc2nc2ccccc12 [Amsacrine] | 0 | 0 | 0 |
| CCn1cc(C(=O)O)c(=O)c2ccc(C)nc21 [Nalidixic acid] | 0 | 0 | 0 |
| CCOC(=O)c1[nH]c2cc(Cl)ccc2c1C(C(=O)NC(C)(C)C)N(C=O)Cc1ccc(Cl)cc1 (centres undefined) [YH239-EE] | 0 | 0 | 0 |
| CN(C)C(=O)C(CCN1CCC(O)(c2ccc(Cl)cc2)CC1)(c1ccccc1)c1ccccc1 [Loperamide (hydrochloride)] | 0 | 0 | 0 |
| Cn1cnc([N+](=O)[O-])c1Sc1ncnc2[nH]cnc12 [Azathioprine] | 0 | 2.7 | 2 |
| CC(=O)S[C@@H]1CC2=CC(=O)CC[C@]2(C)[C@H]2CC[C@@]3(C)[C@@H](CC[C@@]34CCC(=O)O4)[C@H]12 [Spironolactone] | 0 | 0 | 0 |
| CO[C@H]1C[C@@H]2CC[C@@H](C)[C@@](O)(O2)C(=O)C(=O)N2CCCC[C@H]2C(=O)O[C@H]([C@H](C)C[C@@H]2CC[C@@H](O)[C@H](OC)C2)CC(=O)[C@H](C)/C=C(\C)[C@@H](O)[C@@H](OC)C(=O)[C@H](C)C[C@H](C)/C=C/C=C/C=C/1C [Rapamycin] | 0 | 0 | 0 |
| COc1ccc2[nH]c([S+]([O-])Cc3ncc(C)c(OC)c3C)nc2c1 (centres undefined) [Omeprazole (sodium)] | 0 | 0 | 2.9 |
| NCCS(=O)(=O)O [Taurine] | 0 | 2.4 | 0.7 |
| COC1=C(OC)C(=O)C(CCCCCCCCCCO)=C(C)C1=O [Idebenone] | 0 | 0 | 0 |
| COc1ccc(C(=O)CC(=O)c2ccc(C(C)(C)C)cc2)cc1 [Avobenzone] | 0.1 | 0 | 1.5 |
| Cc1cc(C2CCCCC2)n(O)c(=O)c1 [Ciclopirox] | 0 | 0 | 0 |
| O=C(O)C(=O)O.[NH-][C@@H]1CCCC[C@H]1[NH-].[Pt+2] [Oxaliplatin] | 0 | 0 | 0 |
| CC(C)C(C(=O)O)N1C(=O)C(=Cc2ccc(Br)cc2)SC1=S (centres undefined) [BH3I-1] | 0 | 0 | 0 |
| COc1cc(CNC(=O)CCCC/C=C/C(C)C)ccc1O [Capsaicin] | 0 | 0 | 0 |
| O=c1n(CC2CO2)c(=O)n(CC2CO2)c(=O)n1CC1CO1 (centres undefined) [Triglycidyl isocyanurate] | 0 | 0 | 0 |
| O=C(N/N=C/c1ccc([N+](=O)[O-])o1)c1ccc(O)cc1 [Nifuroxazide] | 0 | 0 | 0 |
| O=C(O)c1cccc(-c2noc(-c3ccccc3F)n2)c1 [Ataluren] | 0 | 0 | 0 |
| Cc1c(O)c(=O)ccn1C [Deferiprone] | 0 | 0 | 0 |
| COc1cccc2c1C(=O)c1c(O)c3c(c(O)c1C2=O)C[C@@](O)(C(=O)CO)C[C@@H]3O[C@H]1C[C@H](N)[C@@H](O)[C@H](C)O1 [Epirubicin (hydrochloride)] | 0 | 0 | 0 |
| CC(O)(CS(=O)(=O)c1ccc(F)cc1)C(=O)Nc1ccc(C#N)c(C(F)(F)F)c1 (centres undefined) [Bicalutamide] | 0 | 0 | 0 |
| CC[C@H]1[C@@H](O)[C@@H]2[C@H](CC[C@]3(C)[C@@H]([C@H](C)CCC(=O)O)CC[C@@H]23)[C@@]2(C)CC[C@@H](O)C[C@@H]12 [Obeticholic acid] | 0 | 0 | 0 |
| Nc1nc(=S)c2[nH]cnc2[nH]1 [6-Thioguanine] | 0 | 0 | 0 |
| COc1ccnc(C[S+]([O-])c2nc3cc(OC(F)F)ccc3[nH]2)c1OC (centres undefined) [Pantoprazole (sodium hydrate)] | 0 | 0 | 0 |

Three structures from above, ordered by length of the SMILES, falling:

| Compound | drug sensitivity score [1] [DSS] | drug sensitivity score [2] [DSS] | drug sensitivity score [3] [DSS] |
| --- | --- | --- | --- |
| COc1ccnc(C[S+]([O-])c2nc3cc(OC(F)F)ccc3[nH]2)c1OC (centres undefined) [Pantoprazole (sodium hydrate)] | 0 | 0 | 0 |
| CC(C)C(C(=O)O)N1C(=O)C(=Cc2ccc(Br)cc2)SC1=S (centres undefined) [BH3I-1] | 0 | 0 | 0 |
| CCn1cc(C(=O)O)c(=O)c2ccc(C)nc21 [Nalidixic acid] | 0 | 0 | 0 |

Where a name gives a salt, the structure may show the parent alone. Several reference drugs read as weak here; read low effects with care.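 All three lines are high-grade serous ovarian cancer cells differing in chemosensitivity, with OVCAR3 described as the chemosensitive one. Toxicity was scaled between DMSO vehicle wells and fully lysed wells, the score derives from a fitted multi-dose response curve, and the authors counted a score above 5 as drug sensitivity.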
